Not every detail of the peptide structures is certain; ends, links or a residue may be inferred. Ends that are not written are not given here.
Test system: LB373-EBV cells
Assay: chromium release assay: lysis by CTL 246/76 of LB373-EBV cells pulsed with peptide
Type: cell-based, human
Conditions: Example 8, FIG. 5B; dose response

GLGDVAEV [SEQ ID NO:14]
lysis by CTL 246/76 of peptide-pulsed LB373-EBV cells: not lysed

Source: patent US6096520A, “Brain glycogen phosphorylase cancer antigen” (Ludwig Institute for Cancer Research, priority 1998, dated 2000)
